Source: patent EP3791713A1
Where a chain is given by its changes, count along the chain named. Names and notes keep the numbering of the source. Results are given in words; binding and its absence hold for the method and conditions named. Some results given as binding are weak or reduced against the parent protein; the word gives no strength.

Target: T1, Mp10 (SEQ ID NO:4), factor of Myzus persicae, a member of the OS-D superfamily (Myzus persicae)
T1 sequence: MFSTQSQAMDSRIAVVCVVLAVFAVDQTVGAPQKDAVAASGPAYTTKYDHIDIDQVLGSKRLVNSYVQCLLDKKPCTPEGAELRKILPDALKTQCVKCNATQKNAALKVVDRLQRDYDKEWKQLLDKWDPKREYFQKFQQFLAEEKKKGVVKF
Test: yeast two-hybrid

B1: BvAMSH2 protein (SEQ ID NO:2), Beta vulgaris AMSH2, wild type (protein)
chain: MVTHYPSAPISCTEVPPNAGQVSQVTAADSRYAYSDSAIHVLKNVHISAQLTDDFLELARNNTNNDLETCGVLGASLKEETFYATTLIIPKQKSTSSSCQALREEEIFNIQNDRSLFPVGWIHTHPSQSCFMSSIDLHTQYPYQVMVPEAIAIVVAPTDKTRNYGIFRLTDPSGMNVVKECEENGFHPHRDSTDGRPLYEQCSHVYINPNLRFEIFDLR
binding: binds

B2: Beta vulgaris AMSH2 V72I mutant (protein)
chain: B1 chain with V72I
binding: binds
